Results from article doi:10.1101/2021.12.20.473554.
No constants are given. Whether binding was seen depends on the method and setting. In cells and extracts the contact can be indirect. Some binding calls cover weakened binding; strength is not graded here. Sequences can lack the tags named with a protein.

Target: T1, Flag-TSC22D4 (wild type, pcDNA3) (UniProt Q9EQN3)
T1 sequence: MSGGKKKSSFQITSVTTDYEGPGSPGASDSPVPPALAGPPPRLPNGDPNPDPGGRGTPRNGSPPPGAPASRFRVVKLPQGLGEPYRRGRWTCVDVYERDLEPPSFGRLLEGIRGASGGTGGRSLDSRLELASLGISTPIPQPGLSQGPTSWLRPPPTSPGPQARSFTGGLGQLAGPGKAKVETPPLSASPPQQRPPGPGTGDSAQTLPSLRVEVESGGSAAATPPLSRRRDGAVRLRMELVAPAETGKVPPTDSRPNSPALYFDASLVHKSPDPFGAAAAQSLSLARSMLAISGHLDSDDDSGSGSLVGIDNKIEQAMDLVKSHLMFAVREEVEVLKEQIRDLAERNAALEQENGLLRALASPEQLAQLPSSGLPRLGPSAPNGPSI
Assay: co-IP

binding: binds
B1: full length myc-TSC22D4 (protein, UniProt Q9EQN3 1-387)
chain: T1 sequence
